Source: PubChem BioAssay AID2551 (National Center for Advancing Translational Sciences (NCATS), 2010)
The campaign covered roughly 310,000 compounds. About 17,000 (5.5%) were called active. The shares of active, inactive and inconclusive entries below differ from those in the screen. Calls come from the whole dose curve; as a rule, active = well fitted inhibition curve with a large enough effect; inconclusive = small, poorly fitted or top-dose-only effect, or effect the other way; inactive = no such curve, though single readings can be large or run the other way. Potencies of inconclusive entries are doubtful fits and often do not repeat.

Chains of the proteins cited; added tags and fusions are not shown. Lines headed by an entry give the natural chain unless they say otherwise; changes in a name come on top.
UniProt P51450: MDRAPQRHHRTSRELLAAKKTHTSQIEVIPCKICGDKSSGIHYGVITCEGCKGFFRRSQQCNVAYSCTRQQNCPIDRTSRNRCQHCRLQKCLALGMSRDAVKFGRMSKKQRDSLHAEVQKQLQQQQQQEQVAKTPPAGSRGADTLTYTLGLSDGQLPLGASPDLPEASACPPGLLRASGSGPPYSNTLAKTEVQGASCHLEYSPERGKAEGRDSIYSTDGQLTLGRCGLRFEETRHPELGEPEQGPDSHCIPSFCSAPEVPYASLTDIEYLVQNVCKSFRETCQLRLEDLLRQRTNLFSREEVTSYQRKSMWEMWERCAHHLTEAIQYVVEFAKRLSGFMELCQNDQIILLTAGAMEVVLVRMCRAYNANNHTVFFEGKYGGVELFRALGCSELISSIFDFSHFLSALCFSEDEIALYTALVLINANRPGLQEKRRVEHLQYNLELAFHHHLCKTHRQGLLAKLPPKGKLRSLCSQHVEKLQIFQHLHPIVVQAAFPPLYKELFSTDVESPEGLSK

The compounds below were run against Nuclear receptor ROR-gamma (Mus musculus) (UniProt P51450) (assay: qHTS for inhibitors of ROR gamma transcriptional activity). Conditions: Drosophila S2 Gal4-RORgamma UAS-luciferase reporter, 20 h; activity change, negative = inhibition: at 53.6 µM (top of the series).
Procedure, shortened: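 Using a luciferase readout, inhibitors were identified by reduced reporter activity in Drosophila cells coexpressing a copper-inducible Gal4–ROR gamma fusion and UAS-driven Photinus luciferase, incubated 20 hr after 700 uM copper sulfate.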
% is set by controls: 0 for no effect and ±100 for the full control effect; potency is the fitted concentration of half-maximal effect.
Note: nearly all actives have a fitted effect of over 60% in size.

Row | SMILES | Potency | activity change, negative = inhibition
1 | O=c1cc(-c2cc3ccccc3oc2=O)c2ccc(O)cc2o1 | inconclusive: 1.78 µM [inhibitor, partial curve] | –
2 | Fc1ccc(Nc2nc(-c3ccoc3)nc3ccccc23)cc1 | inconclusive: 12.6 µM [activator, single point] | –
3 | Cc1cc(N2C(=O)C(O)=C(C(=O)c3cc4ccccc4o3)C2c2ccc(Br)cc2)no1 (centres undefined) | inconclusive: 15.8 µM [inhibitor, single point] | –
4 | COc1ccc(NC(=O)c2sc(=S)[nH]c2N)cc1 | inconclusive: 17.8 µM [inhibitor, single point] | –
5 | COc1cc2c3nnc(-c4ccc(F)cc4)c-3cn(Cc3ccccc3)c2cc1OC | active: 11.2 µM | –
6 | Cc1ccc(C(=O)NC2CCc3ccccc3C2=O)cc1 (centres undefined) | – | inactive: -24.5%
7 | Cc1cccc(NC(=O)CSc2nnc(CNC(=O)c3ccc(S(=O)(=O)N(C)C)cc3)n2-c2ccccc2)c1 | inconclusive: 31.6 µM [activator, single point] | –
8 | COc1ccccc1C(=O)NCCNc1nc2cc(C)cc(C)c2cc1C#N | – | inactive: 11.4%
9 | CCCN1CNC(=S)N(c2cccc(C)c2C)C1 | active: 10 µM | –
10 | Cc1ccc(S(=O)(=O)N2CCCC(C(=O)N(Cc3cccs3)C3CC3)C2)cc1 (centres undefined) | inconclusive: 11.2 µM [activator, partial curve] | –
11 | Fc1cccc(CSc2nc3ncccc3[nH]2)c1 | inconclusive: 14.1 µM [inhibitor, single point] | –
12 | Cc1cc(C)cc(NC(=S)NC(=O)CCN2C(=O)c3ccccc3C2=O)c1 | active: 3.55 µM | –
13 | CCOc1cc(C)c(Cl)cc1S(=O)(=O)N1CCCC1 | – | inactive: 0.13%
14 | CCNC(=S)NNC(=O)c1ccccc1Cl | active: 3.16 µM | –
15 | COc1c(OC)c(O)c2c(=O)cc(-c3c(O)cccc3O)oc2c1OC | inconclusive: 7.08 µM [activator, partial curve] | –
16 | CC(=O)Nc1ccc(S(=O)(=O)NNC(=S)NCc2ccco2)cc1 | active: 11.2 µM | –
17 | COc1ccc(CN(C(=O)CCC(=O)Nc2cc(C)on2)C(C(=O)NC(C)(C)C)c2cccc(OC)c2OC)cc1 (centres undefined) | inconclusive: 2.24 µM [activator, partial curve] | –
18 | Cc1cccc(OCCOCCSc2ncccn2)c1 | inconclusive: 10 µM [activator, partial curve] | –
19 | O=C(CCCOc1ccc(Cl)cc1Cl)N/N=C/c1ccccc1O | active: 8.91 µM | –
20 | CC1CCC(C(C)C)C(OCC(O)CN2CCCC(C)C2)C1 (centres undefined) | – | inactive: -10.6%
21 | CC(=O)OCCN(CCCn1c(-c2ccncc2)nc2ccccc21)c1nc(-c2ccc(C)cc2)cs1 | inconclusive: 35.5 µM [inhibitor, single point] | –
22 | Cc1cccc(C(=O)N2CC(=O)Nc3ccc(F)cc3C2c2ccc(F)cc2)c1 (centres undefined) | inconclusive: 35.5 µM [activator, single point] | –
23 | COc1ccc(CCNC(=O)C2CCN(S(=O)(=O)c3cccc4cccnc34)CC2)cc1OC | – | inactive: 6.71%
24 | COc1ccccc1C(=O)NC(=O)CSc1nnc(C)s1 | – | inactive: -5.4%
25 | N=c1oc2ccccc2cc1C(=O)Nc1cccc(F)c1 | inconclusive: 0.794 µM [activator, full curve, poor fit] | –

Row | SMILES | Potency | activity change, negative = inhibition
26 | CCC(=O)N1CCN(c2ccc(NC(=S)NC(=O)c3ccc(OC)c([N+](=O)[O-])c3)cc2)CC1 | active: 7.08 µM | –
27 | C=CCn1cnc2c(c1=O)c1nc3ccccc3nc1n2-c1ccc(C)cc1 | inconclusive: 0.398 µM [activator, full curve] | –
28 | O=C(N/N=C/c1c[nH]c2ccccc12)C1CC1(c1ccccc1)c1ccccc1 (centres undefined) | inconclusive: 31.6 µM [inhibitor, single point] | –
29 | Cc1ccc(-n2cc(C(C)(C)C)[nH]c2=S)cc1 | active: 2.24 µM | –
30 | COc1cccc(/C=N/n2c(N)nc3ccccc32)c1OC | inconclusive: 25.1 µM [inhibitor, single point] | –
31 | N#Cc1c(Nc2ccccc2C(F)(F)F)s[nH]c1=O | active: 14.1 µM | –
32 | O=[N+]([O-])c1ccc(NC(=S)N2CCc3ccccc32)cc1 | active: 12.6 µM | –
33 | COC(=O)C1=C(C(=O)OC)[C@@H]2N(C)c3ccc(OC)cc3[C@@]23C[C@@H](C(=O)OC)N(C(=O)c2ccc(Br)cc2)C3=N1 | inconclusive: 35.5 µM [activator, single point] | –
34 | Cc1ccc(-c2csc(N3N=C(c4ccccc4)/C(=C\c4ccc(N(C)C)cc4)C3=O)n2)cc1 | inconclusive: 2.82 µM [inhibitor, full curve, poor fit] | –
35 | O=C(Nc1ccc(Br)cc1)Nc1ccccc1F | inconclusive: 35.5 µM [activator, single point] | –
36 | O=C(O)CCCN1C(=O)/C(=C\c2ccc(-c3nc4ccccc4s3)o2)SC1=S | – | inactive: -3.34%
37 | CC(C)c1ccccc1NC(=O)COc1ccc(C(=O)NCCc2ccccc2)cc1 | inconclusive: 35.5 µM [inhibitor, single point] | –
38 | O=C(N/N=C/c1cc2ccccc2nc1Cl)[C@H]1C[C@@H]1c1ccccc1 | inconclusive: 22.4 µM [activator, single point] | –
39 | Cc1cc(-n2c(C)cc(C(=O)CN3C(=O)NC4(CCCCCC4)C3=O)c2C)no1 | inconclusive: 7.94 µM [activator, partial curve] | –
40 | COc1cc2c(cc1OC)/C(=C/C(=O)c1ccc(OC)c([N+](=O)[O-])c1)NCC2 | – | inactive: -24.5%
41 | COc1ccc(-n2c(COc3cccc(C)c3)n[nH]c2=S)cc1 | active: 3.55 µM | –
42 | N=c1c(S(=O)(=O)c2ccccc2)cc2c(=O)n3ccccc3nc2n1C1CCCC1 | inconclusive: 3.55 µM [activator, single point] | –
43 | CC(Cn1cncn1)NC(=O)c1cc(COc2cccc(C(F)(F)F)c2)on1 (centres undefined) | inconclusive: 11.2 µM [activator, partial curve] | –
44 | CCC(C)NC(=S)NNC(=O)c1ccc(C(C)(C)C)cc1 (centres undefined) | active: 10 µM | –
45 | Cc1cccc(NNC(=S)Nc2c(C)cccc2C)c1 | active: 3.98 µM | –
46 | O=C(NNc1ncnc2ccccc12)c1cccc(Cl)c1 | active: 7.08 µM | –
47 | COc1ccc(N(C(=O)CCl)C(C(=O)NC2CCCCC2)c2cccnc2)cc1 (centres undefined) | inconclusive: 15.8 µM [inhibitor, single point] | –
48 | CCNS(=O)(=O)c1ccc(CCC(=O)Nc2ccc3c(c2)OCCO3)cc1 | – | inactive: 14.1% [at 1.91 µM]
49 | CC(=O)c1cc(F)c(N2CCN(c3ccc([N+](=O)[O-])cc3F)CC2)cc1C | – | inactive: 11.3%
50 | CCc1cccc(NC(=O)Nc2cccs2)c1 | inconclusive: 35.5 µM [inhibitor, single point] | –

Row | SMILES | Potency | activity change, negative = inhibition
51 | Cc1noc(/C=C/N(C)C)c1S(=O)(=O)N1CCc2ccccc21 | inconclusive: 20 µM [activator, single point] | –
52 | Nc1nonc1-n1nnc(C(=O)N/N=C/c2ccc(Br)cc2)c1CSC1=NCCS1 | – | inactive: -124%
53 | CCCOc1ccc(-c2nc3c(c(=O)[nH]c(=O)n3Cc3ccccc3)n2CCO)cc1OCC | inconclusive: 3.16 µM [activator, full curve, poor fit] | –
54 | CC(C)(C)C(=O)NNC(=O)C1CC1(c1ccccc1)c1ccccc1 (centres undefined) | – | inactive: 10.5%
55 | Cc1ccccc1NC(=O)OCc1cccnc1Sc1ccc(Cl)cc1 | – | inactive: 18.4%
56 | COc1cc(/C=C/C(=O)O)cc(S(=O)(=O)Nc2cccc(SC)c2)c1OC | inconclusive: 14.1 µM [activator, single point] | –
57 | Cc1ccc(NC(=O)C2CC(=O)N(Cc3ccccc3)C2)cc1S(=O)(=O)N1CCCCCC1 (centres undefined) | inconclusive: 35.5 µM [activator, single point] | –
58 | CCOC(=O)N/N=C(\CCC(=O)O)c1cccs1 | inconclusive: 35.5 µM [activator, single point] | –
59 | O=C1C(Cl)=C(NCCN2CCOCC2)C(=O)c2ccccc21 | inconclusive: 5.62 µM [inhibitor, partial curve, poor fit] | –
60 | CCOc1ccc(NC(=O)CN(C)C(=O)CCCOc2ccc(Cl)c(C)c2)cc1OCC | inconclusive: 25.1 µM [activator, single point] | –
61 | CCCCSc1nnc(-c2ccccc2NC(C)=O)c(=O)[nH]1 | – | inactive: -7.66%
62 | CCc1ccc(Cn2nnc(C(=O)Nc3ccc(OC)cc3OC)c2N)cc1 | – | inactive: 0.818%
63 | COc1cc(CNc2nc(C)c([N+](=O)[O-])c(C)c2C#N)cc(OC)c1OC | inconclusive: 14.1 µM [activator, single point] | –
64 | CC1C(=O)NN=C1C(=O)N/N=C\C(Br)=C\c1ccccc1 (centres undefined) | active: 1.26 µM | –
65 | COc1ccc(CS(=O)(=O)/C(Cl)=C(/Cl)C(=O)Nc2ccc(OC)nc2)cc1 | active: 5.01 µM | –
66 | O=C(c1ccc(Cl)c(Cl)c1)N1CCN(c2ccccn2)CC1 | – | inactive: 13.7%
67 | COc1ccc(CCNC(=O)CN2c3cccc4cccc(c34)S2(=O)=O)cc1OC | inconclusive: 14.1 µM [activator, single point] | –
68 | Cn1nnnc1SCC(=O)c1ccco1 | inconclusive: 2.51 µM [inhibitor, partial curve, poor fit] | –
69 | CC(C)OCCCNC(=O)CN1C(=O)c2cccc3cccc1c23 | inconclusive: 6.31 µM [inhibitor, partial curve] | –
70 | CN1CCC(N(C)C(=O)c2sc3cc(F)ccc3c2Cl)CC1 | – | inactive: -17.6%
71 | COC(=O)c1ccc(C[n+]2ccccc2)cc1 | active: 0.1 µM | –
72 | Cc1ccc(N2C(=O)c3ccccc3C2=O)cc1C | inconclusive: 0.1 µM [activator, single point] | –
73 | CCCn1c(=S)[nH]c2cc(Cl)ccc21 | active: 5.01 µM | –
74 | COc1cc([N+](=O)[O-])cc(/C=N/NC(=O)C(C)Nc2ccccc2C)c1O (centres undefined) | active: 0.316 µM | –

Filtered by structure: the compounds so far with a tert-butyl group (4)
Row | SMILES | Potency | activity change, negative = inhibition
17 | COc1ccc(CN(C(=O)CCC(=O)Nc2cc(C)on2)C(C(=O)NC(C)(C)C)c2cccc(OC)c2OC)cc1 (centres undefined) | inconclusive: 2.24 µM [activator, partial curve] | –
29 | Cc1ccc(-n2cc(C(C)(C)C)[nH]c2=S)cc1 | active: 2.24 µM | –
44 | CCC(C)NC(=S)NNC(=O)c1ccc(C(C)(C)C)cc1 (centres undefined) | active: 10 µM | –
54 | CC(C)(C)C(=O)NNC(=O)C1CC1(c1ccccc1)c1ccccc1 (centres undefined) | – | inactive: 10.5%

An excerpt from above in order of molar mass, largest number first:
Row | SMILES | Potency | activity change, negative = inhibition
60 | CCOc1ccc(NC(=O)CN(C)C(=O)CCCOc2ccc(Cl)c(C)c2)cc1OCC | inconclusive: 25.1 µM [activator, single point] | –
64 | CC1C(=O)NN=C1C(=O)N/N=C\C(Br)=C\c1ccccc1 (centres undefined) | active: 1.26 µM | –
72 | Cc1ccc(N2C(=O)c3ccccc3C2=O)cc1C | inconclusive: 0.1 µM [activator, single point] | –
